Laboratory results as given in patent publication US20030049625.
Negatives hold for the conditions tested. The exact form of at least one protein or probe is not confirmed. Whether high values mean tight binding is not given here for every scale.

Chains of the proteins cited; added tags and fusions are not shown. Residues count along the entry.
UniProt P0ACJ8, 2-210: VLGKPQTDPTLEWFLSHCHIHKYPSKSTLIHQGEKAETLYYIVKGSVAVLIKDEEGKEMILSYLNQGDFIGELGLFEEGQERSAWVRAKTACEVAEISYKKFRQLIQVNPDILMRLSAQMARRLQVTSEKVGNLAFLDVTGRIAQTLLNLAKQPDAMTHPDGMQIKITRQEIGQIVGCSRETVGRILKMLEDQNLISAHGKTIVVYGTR

Target: CAP (cAMP receptor protein) (Escherichia coli) (UniProt P0ACJ8)
Experiment: binding assay
Conditions: FRET, purified recombinant protein, letters built from the parent sequence and the stated change

AACGCAATAAATGTGA / TCTACTTCACATTTATTGCGTT / AGTAGATCACATTTTAGGCACC / GGTGCCTAAAATGTGA [CAP1/CAP4 + CAP2/CAP3]
binding result ([strand 2: T3 (N, modified T), strand 3: T3 (N, modified T)], no cAMP, no change in fluorescence, label: n = dT-fluorescein (CAP2), dT-dabcyl (CAP4)): no binding

CTAGATCACATTTTAGGCACCAACGCAATAAATGTGAT / CTAGATCACATTTATTGCGTT / GGTGCCTAAAATGTGAT [CAP7/CAP8/CAP9]
binding signal (12 x Spacer 18 between bases 21 and 22 of CAP7 [strand 1: T2 (N, modified T), 12 x Spacer 18 between bases 21 and 22 (left out), strand 2: T2 (N, modified T)], 75 nM CAP, 50 nM DNA, 200 uM cAMP, 50 mM NaCl, complete within ~20 s, label: dT-fluorescein (CAP7), dT-dabcyl (CAP8)): 70 % quenching
